The source of these data is US8569282B2.

Chains of the proteins cited; added tags and fusions are not shown. Residues count along the entry.
UniProt P41597, 1-360 isoform 2: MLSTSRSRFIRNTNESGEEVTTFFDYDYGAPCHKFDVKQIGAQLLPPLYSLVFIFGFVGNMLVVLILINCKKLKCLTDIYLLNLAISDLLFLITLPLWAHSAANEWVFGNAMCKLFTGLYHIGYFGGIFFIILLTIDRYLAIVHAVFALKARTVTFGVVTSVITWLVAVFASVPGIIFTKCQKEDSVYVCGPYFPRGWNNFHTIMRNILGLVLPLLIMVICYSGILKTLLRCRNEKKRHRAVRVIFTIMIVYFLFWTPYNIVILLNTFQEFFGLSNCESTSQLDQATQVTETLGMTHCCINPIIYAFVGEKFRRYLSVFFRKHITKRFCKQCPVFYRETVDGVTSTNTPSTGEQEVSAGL

For this assay, the target named is CCR2b (Homo sapiens, UniProt P41597). Put plainly: AequoScreen CCR2b Ca++ flux assay (antagonist mode). The note with it: read-out: IC50 (μM) Ca^++ flux; AequoScreen CCR2b (FAST-060A) cells; inhibition of reference agonist MCP-1; tested form: TFA salt.

The match of structure and compound is tentative.

As usually defined, the IC50 is the concentration at which inhibition is half-maximal. Take `COCC1(C(=O)N2CCc3ncc(C(F)(F)F)cc3C2)CCN(Cc2cc3oc(=O)n(C)c3cc2Br)C1` (centres unmarked): the IC50 is < 0.2 µM.

Consider `CCn1c(=O)oc2cc(CN3CCC(COC)(C(=O)N4CCc5ncc(C(F)(F)F)cc5C4)C3)ccc21` (centres unmarked), for which the IC50 was < 0.2 µM.
